Experimental data: PubChem BioAssay AID485298 (National Center for Advancing Translational Sciences (NCATS), 2010)
Screen size: about 320,000 compounds; about 740 (0.23%) were called active. This list was built around the results that the source calls inconclusive (neither active nor inactive); the mix of calls is not that of the screen. Calls follow the shape of the dose curve; as a rule, active = well fitted activation curve with a large enough effect; inconclusive = small, poorly fitted or top-dose-only effect; inactive = no such curve, though single readings can be large or run the other way. Potencies of inconclusive entries are doubtful fits and often do not repeat.
Potency is read from the fitted curve at half-maximal effect.

Assay: qHTS Assay for Small Molecule Inhibitors of Mitochondrial Division or Activators of Mitochondrial Fusion; also: nearly all actives have a fitted effect of over 45% in size
Conditions: S. cerevisiae fusion-defective mutant growth rescue, CellTiterGlo 48 h; series mostly up to 46.1 µM
In short: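 Growth-rescue viability read-out: after 48 h at the non-permissive 37C in glycerol/ethanol YPEG, yeast mitochondrial fusion mutants are measured by CellTiterGlo luminescence; compounds (23 nl pinned per well) restoring growth score as division inhibitors or fusion activators.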
In the case of `CC(C)CC(=O)Nc1sc2c(c1C(=O)O)CCCCC2`, the Potency is reported as “inactive”.
In the case of `Cc1ncc(CN2CCC(CO)(CCOc3ccccc3)CC2)s1`, the Potency is reported as inconclusive: 11.2 µM [activator, partial curve].
With `Nc1c(C(=O)NCc2ccco2)c2nc3ccccc3nc2n1CCc1ccc(F)cc1` the Potency was inconclusive: 12.6 µM [activator, partial curve].
In the case of `Cc1cc(=O)[nH]c(SCC(=O)Nc2cccc3ccccc23)c1C#N`, the Potency is reported as inconclusive: 6.31 µM [activator, single point].
In the case of `CN(C)C(=O)COC(=O)c1ccccc1Nc1ccc(SC(F)F)cc1`, the Potency is reported as inconclusive: 25.1 µM [activator, single point].
In the case of `Cc1cccc(C)c1-n1cccc1/C=C1/C(=N)N2C(=NC1=O)SN=C2S(C)(=O)=O`, the Potency is reported as “inactive”.
In the case of `CNC(=O)/C(C#N)=C/c1c(N(Cc2ccccc2)Cc2ccccc2)nc2c(C)cccn2c1=O`, the Potency is reported as inconclusive: 28.2 µM [activator, partial curve].
In the case of `CCOc1ccc(/C=C2/Sc3ccc(C(=O)N4CCOCC4)cc3N(C)C2=O)cc1OC`, the Potency is reported as “inactive”.
In the case of `COc1ccc(-c2csc(NC(=O)C3CCN(C(=O)c4ccc(F)cc4)CC3)n2)cc1OC`, the Potency is reported as “inactive”.
For `COc1cccc(C2C(C(=O)c3sc(C)nc3C)=C(O)C(=O)N2CCN2CCOCC2)c1OC` (stereo unspecified), the Potency was “inactive”.
With `O=C(c1cccc(Cl)c1)N1CCC(c2nc3ccccc3[nH]2)CC1` the Potency was inconclusive: 15.8 µM [activator, single point].
For `CC(C)(C)CC(=O)O/N=C(\N)c1ccccn1`, the Potency was “inactive”.
For `CCCCCCSc1ccc([C@H]2N[C@@](Cc3ccccc3)(C(=O)OC)[C@H]3C(=O)N(C)C(=O)[C@@H]23)cc1`, the Potency was inconclusive: 14.1 µM [activator, partial curve].
With `CCOC(=O)c1sc2ncnc(OC)c2c1C` the Potency was inconclusive: 17.8 µM [activator, single point].
With `O=C(NCc1cccs1)c1cc(-c2ccccc2)nc2ccccc12` the Potency was inconclusive: 22.4 µM [activator, single point].
With `Cc1ccc(-c2cc(C(=O)N/N=C/C(Br)=C/c3ccccc3)n[nH]2)o1` the Potency was “inactive”.
For `C/C(CC(C)(C)C1CCCCC1)=N\NC(N)=S`, the Potency was inconclusive: 3.16 µM [activator, partial curve].
For `Cc1ccc(C(=O)c2cccc(N)c2)cc1C`, the Potency was “inactive”.
For `Cn1c(=O)c(Oc2ccc(Cl)cc2)c(O)c2ccccc21`, the Potency was active: 10 µM.
With `S=C(NCc1ccccc1)N1CCN(c2cccc(Cl)c2)CC1` the Potency was “inactive”.
In the case of `CCSc1nnc(NC(=O)[C@@H](NC(=O)c2ccccc2F)C(C)C)s1`, the Potency is reported as inconclusive: 14.1 µM [activator, single point].
For `CC(C1CC1)N(Cc1ccccc1)C(=S)Nc1ccccc1Cl` (stereo unspecified), the Potency was “inactive”.
In the case of `CCOC(=O)N1CCN(c2c(N3CCN(c4cc(C)ccc4C)CC3)c(=O)c2=O)CC1`, the Potency is reported as “inactive”.
For `CC(C)COc1ccc(C(=O)Nc2sc3c(c2C(=O)O)CC(C)(C)OC3)cc1`, the Potency was “inactive”.
In the case of `O=C(COc1ccccc1)Nc1cccc(-c2nnc(-c3ccccc3)o2)c1`, the Potency is reported as inconclusive: 2.82 µM [activator, partial curve, poor fit].
In the case of `Nc1ccc(Oc2cccc(Oc3ccc(N)cc3)c2)cc1`, the Potency is reported as inconclusive: 0.501 µM [activator, partial curve, poor fit].
For `CC1(C)Cc2c(sc3nnn(Cc4ccc(Cl)cc4)c(=O)c23)CO1`, the Potency was “inactive”.
With `COc1ccc(C(=O)OC2CCN(C)CC2)cc1` the Potency was “inactive”.
In the case of `CCN(CC(=O)Nc1ccccc1C(F)(F)F)C(=O)c1cc2c(s1)CCCCC2`, the Potency is reported as inconclusive: 14.1 µM [activator, single point].
In the case of `Cc1cccc(C)c1C(OCCN(C)C)C1CCCCC1` (stereo unspecified), the Potency is reported as “inactive”.
In the case of `C=CCn1cccc(C(=O)Nc2ccc(Cl)cc2)c1=O`, the Potency is reported as inconclusive: 31.6 µM [activator, single point].
For `CC1CCN(c2nc(NCc3ccco3)nc(N)c2[N+](=O)[O-])CC1`, the Potency was inconclusive: 8.91 µM [activator, partial curve].
For `COc1cc(NC(=O)NS(=O)(=O)c2ccc(C)cc2)cc(OC)c1`, the Potency was inconclusive: 6.31 µM [activator, full curve, poor fit].
For `Cc1ccccc1Nc1nnc(C)c(=O)n1N`, the Potency was inconclusive: 3.55 µM [activator, partial curve].
For `CCn1c2ccccc2c2nnc(SCCCn3c(=O)[nH]c4ccccc43)nc21`, the Potency was inconclusive: 25.1 µM [activator, single point].
In the case of `CCn1nc(NC(=O)C(C)(C)C)c2cc3cccc(C)c3nc21`, the Potency is reported as “inactive”.
With `CCCCC(=O)OCc1c(-c2ccccc2)ncc2ccccc12` the Potency was inconclusive: 3.16 µM [activator, single point].
In the case of `CN(C)c1ccc(C(=O)Nc2nnc(-c3ccc(Cl)cc3)o2)cc1`, the Potency is reported as inconclusive: 17.8 µM [activator, single point].
For `Cc1ccc(C(=O)C2CCN(C(=O)c3ccc(C)cc3)CC2)cc1`, the Potency was “inactive”.
With `COc1ccc(NC(=O)c2ccc([N+](=O)[O-])o2)cc1` the Potency was “inactive”.
With `COc1ccc(NC(=O)CN(C)C(=O)COc2ccccc2Cc2ccccc2)cc1` the Potency was inconclusive: 11.2 µM [activator, partial curve].
With `COc1ccccc1Cn1c(=S)[nH]c2ccccc2c1=O` the Potency was “inactive”.
In the case of `C=C(C)COc1ccc2c(CC)cc(=O)oc2c1C`, the Potency is reported as inconclusive: 20 µM [activator, partial curve].
For `CCOc1ccccc1-c1ccc(C(=O)NCc2ccccc2)o1`, the Potency was inconclusive: 25.1 µM [activator, single point].
With `COc1cccc2c1OCC(C(=O)NCc1ccc(Cl)cc1Cl)=C2` the Potency was inconclusive: 20 µM [activator, single point].
With `CC1=CC(C)(C)N(C(=O)CSc2nnc(N)s2)c2ccccc21` the Potency was “inactive”.
In the case of `CCOc1ccc(-n2c(CCc3ccccc3)n[nH]c2=S)cc1`, the Potency is reported as “inactive”.
In the case of `O=C(COc1cccc2c1CCN(Cc1ccc(Br)cc1)C2=O)NCc1ccco1`, the Potency is reported as inconclusive: 31.6 µM [activator, single point].
For `Cc1ccc(-n2cc(-c3ccc([N+](=O)[O-])cc3)[nH]c2=S)c(C)c1`, the Potency was inconclusive: 14.1 µM [activator, single point].
For `COc1cc2ccccc2cc1C(=O)N1CCc2ccccc21`, the Potency was inconclusive: 14.1 µM [activator, single point].
In the case of `Cc1ccc2oc(=O)n(Cc3ccccc3OC(C)C)c2c1`, the Potency is reported as inconclusive: 14.1 µM [activator, partial curve].
With `Oc1c(Cl)cc(Cl)cc1C(C#Cc1ccccc1)N1CCOCC1` (stereo unspecified) the Potency was inconclusive: 25.1 µM [activator, single point].
For `Cn1cc(/C=N\NC(=O)c2cccs2)c2ccccc21`, the Potency was inconclusive: 35.5 µM [activator, single point].
For `COc1ccccc1NC(=O)C1(c2ccccc2)CCCC1`, the Potency was inconclusive: 12.6 µM [activator, partial curve].
For `Cc1cccc2nc(-c3ccccc3)nc(N[C@@H](CO)c3ccccc3)c12`, the Potency was inconclusive: 20 µM [activator, partial curve].
For `Cc1cc(-c2ccccc2)nc(N2CCN(c3ccccn3)CC2)n1`, the Potency was “inactive”.
For `CCCCOc1ccc(NC(=O)[C@@H]2CCCN2C(=O)C2CCN(S(=O)(=O)c3ccc(C)cc3)CC2)cc1`, the Potency was inconclusive: 28.2 µM [activator, single point].
In the case of `CCOC(=O)N1CCN(c2nc3ccccc3n3cnnc23)CC1`, the Potency is reported as active: 25.1 µM.
With `COc1ccc(C(=O)NC(C)c2cnn(-c3ccccn3)c2C)o1` (stereo unspecified) the Potency was “inactive”.
With `CCOC(=O)C1=C(CN2CCc3ccccc32)NC(=O)NC1c1ccc(Cl)cc1` (stereo unspecified) the Potency was inconclusive: 11.2 µM [activator, partial curve].
In the case of `O=C(Nc1ccc2[nH]c(=O)[nH]c2c1)c1ccc(Cl)c(Cl)c1`, the Potency is reported as inconclusive: 31.6 µM [activator, single point].
In the case of `COc1c(F)cccc1C1=CC(=O)C[C@H](c2ccc3c(c2)OCO3)C1`, the Potency is reported as inconclusive: 28.2 µM [activator, single point].
In the case of `C#CCOCCOCCOCCNc1nc(N2CCN(C(=O)CCCCCCCCCCNC(=O)[C@H](CCCCN)n3cc(CCO)nn3)CC2)nc(N2CCN(C(=O)CCCCCCCCCCNC(=O)[C@H](CCCN=C(N)N)n3cc(C[C@@H](C)CC)nn3)CC2)n1`, the Potency is reported as inconclusive: 35.5 µM [activator, single point].
In the case of `O=S(=O)(c1cccc2nsnc12)N1CCN(C/C=C\c2ccccc2)CC1`, the Potency is reported as inconclusive: 31.6 µM [activator, single point].
For `COc1ccc(/C=C2\CCCC3C2=NC(=S)NC3c2ccc(OC)cc2)cc1` (stereo unspecified), the Potency was inconclusive: 14.1 µM [activator, partial curve].
For `CC(C)CC(=O)Nc1ccc(N2CCN(S(C)(=O)=O)CC2)cc1`, the Potency was “inactive”.
With `Cc1ccnc(Nc2nc(-c3ccc(O)c(O)c3)cs2)c1` the Potency was inconclusive: 6.31 µM [activator, single point].
In the case of `O=C(O)c1cc(-c2ccc(-c3ccc(F)cc3)o2)nc2ccccc12`, the Potency is reported as inconclusive: 15.8 µM [activator, partial curve].
With `COc1cccc(NC(=S)N(Cc2ccccn2)Cc2ccccc2Cl)c1` the Potency was “inactive”.
With `COc1cc(-c2nc(-c3ccc(NC(=O)c4ccc5c(c4)OCO5)cc3)no2)cc(OC)c1OC` the Potency was “inactive”.
For `COC(=O)[C@@H]1CC[C@H](C)[C@@H](c2ccc(C)cc2)N1C(=O)c1ccc(/C=N/O[C@@H](C)CN2CCCCc3nc(C)c(C)cc32)cc1`, the Potency was inconclusive: 15.8 µM [activator, partial curve].
